Values joined by “and” are separate entries in the source; they are usually repeats but may differ in a detail not shown here. Equal entries are not always repeated. Structures can show the parent of a compound that is named as a salt. ± gives the standard deviation of the averaged measurements. Some of the results follow. Repeats are few or missing, and single values can be far off.
Tested on: RAW 264.7
Assay: cell viability (MTT) relative to vehicle control; higher = more viable cells
Details: stimulus: HMGB1 5 ug/ml, 18 h
[1] = compound concentration: 1 ug/ml

Row | Structure (SMILES) | cell viability [1] [%] | cell viability (compound concentration: 3 uM)
1 | CN(C)[C@@H]1C(O)=C(C(=O)NCN2CCCC2)C(=O)[C@@]2(O)C(O)=C3C(=O)c4c(O)cccc4[C@@](C)(O)[C@H]3C[C@@H]12 [Rolitetracycline] | 91.3 | 82.9%
2 | CN(C)[C@@H]1C(O)=C(C(=O)NCN2CCCC2)C(=O)[C@@]2(O)C(O)=C3C(=O)c4c(O)cccc4[C@@](C)(O)[C@H]3C[C@@H]12 |  | 101 ± 11%
3 | Nc1nc2c(nc(Br)n2[C@@H]2OC(CO)C(O)C2O)c(=O)[nH]1 (some centres not stated) | 96.8 | 
4 | Cc1c(N(C)CS(=O)(=O)O)c(=O)n(-c2ccccc2)n1C |  | 99.4%
5 | Cc1c(N(C)CS(=O)(=O)O)c(=O)n(-c2ccccc2)n1C [Dipyrone] |  | 106%
6 | CCC(C)N(C)C(=O)c1cc2ccccc2c(-c2ccccc2Cl)n1 (configuration not stated) |  | 90.1%
7 | NC(=O)[C@@H]1CCCN1 [L-Prolinamide] | 97.2 | 
8 | Nc1nc2ccc(Cl)cc2c2nc(-c3ccco3)nn12 |  | 107% and 94.1%
9 | CC[C@H](C)C(=O)O[C@H]1CCC=C2C=C[C@H](C)[C@H](CC[C@@H]3C[C@@H](O)CC(=O)O3)[C@H]21 [Mevastatin] |  | 113 ± 6.4%
10 | CC[C@H](C)C(=O)O[C@H]1CCC=C2C=C[C@H](C)[C@H](CC[C@@H]3C[C@@H](O)CC(=O)O3)[C@H]21 [mevastatin] |  | 111%
11 | CC[C@H](C)C(=O)O[C@H]1CCC=C2C=C[C@H](C)[C@H](CC[C@@H]3C[C@@H](O)CC(=O)O3)[C@H]21 |  | 114%
12 | Nc1cc(C(Cl)=C(Cl)Cl)c(S(N)(=O)=O)cc1S(N)(=O)=O |  | 106 ± 1.1%
13 | Nc1cc(C(Cl)=C(Cl)Cl)c(S(N)(=O)=O)cc1S(N)(=O)=O [Clorsulon] |  | 85.6%
14 | COc1ccc2[nH]cc(CC(N)C(=O)O)c2c1 (racemic) [DL-5-Methoxytryptophan] | 84 | 
15 | C1CNCCN1 |  | 97.3%
16 | COc1c2occc2c(OC)c2c(=O)cc(C)oc12 [Khellin] | 97.2 | 95.3%
17 | COc1c2occc2c(OC)c2c(=O)cc(C)oc12 |  | 106%
18 | NCC(O)CC(=O)O (configuration not stated) |  | 106%
19 | O=C(/C=C/c1ccc(O)c(O)c1)OCCc1ccccc1 [Caffeic acid phenethyl ester] |  | 45.8%
20 | NNc1nncc2ccccc12 [Hydralazine hydrochloride] |  | 99.5 ± 9.2%
21 | NNc1nncc2ccccc12 |  | 103%
22 | CC(=O)OCC(CCn1cnc2cnc(N)nc21)COC(C)=O |  | 101.4 ± 0.3%
23 | CC(=O)OCC(CCn1cnc2cnc(N)nc21)COC(C)=O [Famciclovir] |  | 97.8 ± 4%
24 | Nc1ncnc2c1c(I)cn2[C@@H]1C[C@H](N)[C@@H](O)[C@H]1O |  | 111%
25 | CN1CCN(c2c(F)cc3c(=O)c(C(=O)O)cn(CCF)c3c2F)CC1 [Fleroxacin] |  | 101 ± 13%

Full records as entered above.
CN(C)[C@@H]1C(O)=C(C(=O)NCN2CCCC2)C(=O)[C@@]2(O)C(O)=C3C(=O)c4c(O)cccc4[C@@](C)(O)[C@H]3C[C@@H]12 [Rolitetracycline] in the list: cell viability [1] [%]: 91.3; cell viability (compound concentration: 3 uM): 82.9%
COc1c2occc2c(OC)c2c(=O)cc(C)oc12 [Khellin] in the list: cell viability [1] [%]: 97.2; cell viability (compound concentration: 3 uM): 95.3%

— the supplement of paper PMC3682954
